Measurements reported in paper PMC3967948.
Results are given in words; binding and its absence hold for the method and conditions named. In cells and extracts the contact can be indirect. Some binding calls cover weakened binding; strength is not graded here.

The chains behind the UniProt entries cited, without tags or fusion partners.
UniProt P29341: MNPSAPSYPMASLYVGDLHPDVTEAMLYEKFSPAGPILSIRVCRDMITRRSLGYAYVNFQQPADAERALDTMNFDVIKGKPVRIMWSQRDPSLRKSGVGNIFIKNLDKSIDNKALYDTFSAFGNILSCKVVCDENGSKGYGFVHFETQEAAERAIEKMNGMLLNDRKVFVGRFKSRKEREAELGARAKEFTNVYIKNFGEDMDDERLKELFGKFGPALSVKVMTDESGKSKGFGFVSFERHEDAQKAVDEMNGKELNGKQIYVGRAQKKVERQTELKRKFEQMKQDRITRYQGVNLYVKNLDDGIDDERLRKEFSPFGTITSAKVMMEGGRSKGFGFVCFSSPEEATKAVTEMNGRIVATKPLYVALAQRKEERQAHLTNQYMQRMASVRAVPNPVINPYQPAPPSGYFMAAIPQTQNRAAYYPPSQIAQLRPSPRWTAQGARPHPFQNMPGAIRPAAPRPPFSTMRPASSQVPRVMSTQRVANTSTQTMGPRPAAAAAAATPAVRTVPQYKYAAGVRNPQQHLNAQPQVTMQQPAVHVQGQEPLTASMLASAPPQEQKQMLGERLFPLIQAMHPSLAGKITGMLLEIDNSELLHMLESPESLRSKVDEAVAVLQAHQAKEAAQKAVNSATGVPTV
UniProt Q501J6: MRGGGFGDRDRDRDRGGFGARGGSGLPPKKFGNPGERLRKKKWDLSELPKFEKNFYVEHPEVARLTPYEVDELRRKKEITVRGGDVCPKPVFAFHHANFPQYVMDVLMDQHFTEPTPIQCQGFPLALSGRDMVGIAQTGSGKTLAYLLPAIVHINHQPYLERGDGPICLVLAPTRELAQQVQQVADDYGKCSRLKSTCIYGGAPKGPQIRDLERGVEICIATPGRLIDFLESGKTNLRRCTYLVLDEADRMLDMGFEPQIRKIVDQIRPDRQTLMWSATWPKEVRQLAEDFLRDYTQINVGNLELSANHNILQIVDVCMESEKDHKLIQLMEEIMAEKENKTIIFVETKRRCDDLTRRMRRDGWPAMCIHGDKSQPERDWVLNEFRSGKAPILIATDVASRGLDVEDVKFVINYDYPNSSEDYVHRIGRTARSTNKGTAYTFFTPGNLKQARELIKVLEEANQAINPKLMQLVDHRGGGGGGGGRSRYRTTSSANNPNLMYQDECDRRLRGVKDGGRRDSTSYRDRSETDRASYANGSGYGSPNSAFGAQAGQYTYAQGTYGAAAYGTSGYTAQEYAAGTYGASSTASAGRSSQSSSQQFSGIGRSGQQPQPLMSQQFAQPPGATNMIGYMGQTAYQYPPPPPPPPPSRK
UniProt Q8VEK3: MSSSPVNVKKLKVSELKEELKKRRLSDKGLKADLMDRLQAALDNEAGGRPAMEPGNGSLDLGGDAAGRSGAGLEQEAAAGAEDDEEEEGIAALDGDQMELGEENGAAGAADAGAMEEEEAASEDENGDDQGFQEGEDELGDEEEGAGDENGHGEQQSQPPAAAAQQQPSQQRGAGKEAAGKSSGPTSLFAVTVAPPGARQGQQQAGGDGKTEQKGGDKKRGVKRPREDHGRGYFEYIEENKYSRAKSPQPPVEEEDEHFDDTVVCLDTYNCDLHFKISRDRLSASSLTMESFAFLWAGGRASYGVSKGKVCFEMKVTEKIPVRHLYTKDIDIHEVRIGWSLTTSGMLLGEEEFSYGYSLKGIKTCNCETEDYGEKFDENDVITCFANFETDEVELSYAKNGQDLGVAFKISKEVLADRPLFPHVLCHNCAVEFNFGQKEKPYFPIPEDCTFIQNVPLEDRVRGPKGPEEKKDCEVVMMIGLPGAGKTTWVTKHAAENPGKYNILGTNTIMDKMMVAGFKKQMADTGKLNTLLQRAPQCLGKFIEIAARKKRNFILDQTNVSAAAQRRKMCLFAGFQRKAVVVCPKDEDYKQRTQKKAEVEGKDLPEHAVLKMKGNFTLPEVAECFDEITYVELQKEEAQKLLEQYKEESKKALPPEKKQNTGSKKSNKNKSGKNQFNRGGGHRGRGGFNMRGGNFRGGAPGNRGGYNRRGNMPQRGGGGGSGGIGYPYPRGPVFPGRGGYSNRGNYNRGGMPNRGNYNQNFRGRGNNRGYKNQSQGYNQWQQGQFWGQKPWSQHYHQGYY
UniProt O00571: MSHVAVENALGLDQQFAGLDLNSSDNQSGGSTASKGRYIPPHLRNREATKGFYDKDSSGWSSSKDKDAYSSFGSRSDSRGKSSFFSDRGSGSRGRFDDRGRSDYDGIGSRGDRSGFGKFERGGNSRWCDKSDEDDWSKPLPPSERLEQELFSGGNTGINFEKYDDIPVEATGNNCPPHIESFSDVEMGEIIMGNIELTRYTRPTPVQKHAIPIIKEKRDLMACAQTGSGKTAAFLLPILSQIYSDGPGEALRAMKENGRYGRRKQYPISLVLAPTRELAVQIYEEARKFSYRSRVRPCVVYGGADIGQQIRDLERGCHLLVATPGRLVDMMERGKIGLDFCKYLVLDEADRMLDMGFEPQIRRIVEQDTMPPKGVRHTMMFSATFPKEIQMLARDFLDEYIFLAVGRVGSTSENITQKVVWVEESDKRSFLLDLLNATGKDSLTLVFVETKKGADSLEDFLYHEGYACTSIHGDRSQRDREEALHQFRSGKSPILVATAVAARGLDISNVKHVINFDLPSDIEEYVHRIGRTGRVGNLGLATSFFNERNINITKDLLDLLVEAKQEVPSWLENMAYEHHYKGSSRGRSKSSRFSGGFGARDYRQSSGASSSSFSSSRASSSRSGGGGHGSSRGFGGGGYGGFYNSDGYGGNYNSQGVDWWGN
UniProt P11940: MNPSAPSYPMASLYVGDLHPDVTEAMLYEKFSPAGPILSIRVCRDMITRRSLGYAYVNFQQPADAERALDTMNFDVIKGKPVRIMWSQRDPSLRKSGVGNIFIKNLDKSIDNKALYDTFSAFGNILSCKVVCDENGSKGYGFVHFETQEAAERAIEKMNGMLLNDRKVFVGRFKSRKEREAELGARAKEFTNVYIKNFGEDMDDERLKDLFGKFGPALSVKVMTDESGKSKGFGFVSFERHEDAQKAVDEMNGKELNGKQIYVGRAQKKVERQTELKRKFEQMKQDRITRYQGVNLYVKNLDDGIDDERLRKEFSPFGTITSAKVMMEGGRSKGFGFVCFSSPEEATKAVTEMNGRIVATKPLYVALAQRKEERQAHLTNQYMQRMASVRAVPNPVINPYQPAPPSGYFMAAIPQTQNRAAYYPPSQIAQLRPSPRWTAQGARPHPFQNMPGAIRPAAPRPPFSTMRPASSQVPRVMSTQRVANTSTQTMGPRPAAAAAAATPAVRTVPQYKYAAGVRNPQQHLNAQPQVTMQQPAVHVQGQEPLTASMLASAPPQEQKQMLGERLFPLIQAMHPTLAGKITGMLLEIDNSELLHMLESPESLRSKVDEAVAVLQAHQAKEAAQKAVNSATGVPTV
UniProt Q92841: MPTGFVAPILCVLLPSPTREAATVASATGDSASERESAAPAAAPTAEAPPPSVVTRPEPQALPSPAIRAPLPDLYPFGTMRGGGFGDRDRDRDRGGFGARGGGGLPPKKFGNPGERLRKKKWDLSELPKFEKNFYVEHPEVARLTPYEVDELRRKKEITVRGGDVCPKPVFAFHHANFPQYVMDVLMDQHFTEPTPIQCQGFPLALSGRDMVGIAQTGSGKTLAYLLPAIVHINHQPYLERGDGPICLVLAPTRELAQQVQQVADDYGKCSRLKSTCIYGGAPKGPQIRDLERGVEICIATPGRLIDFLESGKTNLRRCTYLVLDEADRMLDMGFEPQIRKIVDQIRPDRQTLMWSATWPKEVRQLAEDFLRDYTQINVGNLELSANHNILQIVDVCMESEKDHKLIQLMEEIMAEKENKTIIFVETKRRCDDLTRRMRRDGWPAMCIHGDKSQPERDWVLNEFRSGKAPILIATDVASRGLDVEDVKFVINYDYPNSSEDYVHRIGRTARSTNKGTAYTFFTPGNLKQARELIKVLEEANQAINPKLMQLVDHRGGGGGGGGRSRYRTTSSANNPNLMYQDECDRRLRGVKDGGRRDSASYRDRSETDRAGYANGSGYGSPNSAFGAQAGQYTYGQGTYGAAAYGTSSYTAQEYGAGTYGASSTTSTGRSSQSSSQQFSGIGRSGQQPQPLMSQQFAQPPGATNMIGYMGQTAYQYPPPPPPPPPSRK

Legend:
[1] = molecular target: T1, TBX3 (endogenous, human) (human (endogenous in HEK293)) (UniProt O15119); assay: co-IP; endogenous proteins, HEK293 lysates treated with RNAse A before IP
T1 sequence: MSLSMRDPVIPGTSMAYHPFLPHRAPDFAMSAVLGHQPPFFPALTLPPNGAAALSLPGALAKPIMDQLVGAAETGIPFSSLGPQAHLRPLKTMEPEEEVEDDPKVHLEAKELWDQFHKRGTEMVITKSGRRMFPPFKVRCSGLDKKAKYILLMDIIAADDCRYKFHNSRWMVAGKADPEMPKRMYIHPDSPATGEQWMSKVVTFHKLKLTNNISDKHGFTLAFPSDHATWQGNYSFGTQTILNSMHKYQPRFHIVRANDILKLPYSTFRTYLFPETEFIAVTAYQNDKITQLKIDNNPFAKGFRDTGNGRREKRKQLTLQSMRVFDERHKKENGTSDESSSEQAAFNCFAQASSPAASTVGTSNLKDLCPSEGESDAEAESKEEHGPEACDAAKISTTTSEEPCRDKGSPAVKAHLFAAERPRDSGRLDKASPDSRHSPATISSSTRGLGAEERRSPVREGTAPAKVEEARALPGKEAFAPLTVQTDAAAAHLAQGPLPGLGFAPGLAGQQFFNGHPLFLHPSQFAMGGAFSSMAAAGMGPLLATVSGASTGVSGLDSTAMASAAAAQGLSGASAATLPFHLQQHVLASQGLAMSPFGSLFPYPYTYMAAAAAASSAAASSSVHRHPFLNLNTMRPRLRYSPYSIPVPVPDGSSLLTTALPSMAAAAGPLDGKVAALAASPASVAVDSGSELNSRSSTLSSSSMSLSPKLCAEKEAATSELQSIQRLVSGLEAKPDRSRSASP

[2] = molecular target: T1, TBX3 (endogenous, human) (human (endogenous in HEK293)); assay: co-IP; endogenous proteins, Dignam lysates of HEK293 cells; IP and immunoblot with specific antibodies
[3] = molecular target: T2, Tbx3 (wild type, transfected) (mouse) (UniProt P70324); assay: co-IP; HEK293 cells with stable retroviral shRNA knockdown of endogenous TBX3, transfected with wild type or mutant Tbx3; Tbx3 IP, immunoblot for endogenous DDX3, hnRNP C, DDX17
T2 sequence: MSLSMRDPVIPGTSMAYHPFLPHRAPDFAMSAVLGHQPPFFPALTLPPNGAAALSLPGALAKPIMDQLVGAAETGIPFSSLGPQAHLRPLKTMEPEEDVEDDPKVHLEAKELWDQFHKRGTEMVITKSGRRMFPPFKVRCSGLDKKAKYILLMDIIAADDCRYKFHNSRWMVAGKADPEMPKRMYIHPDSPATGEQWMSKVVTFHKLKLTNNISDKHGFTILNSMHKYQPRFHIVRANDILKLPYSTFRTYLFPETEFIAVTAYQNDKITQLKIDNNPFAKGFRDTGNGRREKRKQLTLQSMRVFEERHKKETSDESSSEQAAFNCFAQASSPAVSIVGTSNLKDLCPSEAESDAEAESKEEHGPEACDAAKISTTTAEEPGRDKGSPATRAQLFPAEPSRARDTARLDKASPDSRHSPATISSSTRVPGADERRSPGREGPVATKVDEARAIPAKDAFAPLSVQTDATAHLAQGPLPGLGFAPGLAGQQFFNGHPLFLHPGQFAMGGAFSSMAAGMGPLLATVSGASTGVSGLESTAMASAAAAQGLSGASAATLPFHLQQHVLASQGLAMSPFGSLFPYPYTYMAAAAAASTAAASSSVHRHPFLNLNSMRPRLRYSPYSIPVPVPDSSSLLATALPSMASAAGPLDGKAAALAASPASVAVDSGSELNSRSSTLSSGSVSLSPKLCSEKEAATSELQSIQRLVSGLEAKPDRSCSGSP

[4] = molecular target: Pabp1 (mouse) (mouse (endogenous in e10.5 embryos)) (UniProt P29341); assay: co-IP; endogenous proteins, Dignam lysates of e10.5 mouse embryos; IP and immunoblot with specific antibodies
[5] = molecular target: hnrnp k (mouse) (mouse (endogenous in e10.5 embryos)) (UniProt P61979); assay: as above
[6] = molecular target: Ddx17 (mouse) (mouse (endogenous in e10.5 embryos)) (UniProt Q501J6); assay: as above
[7] = molecular target: hnrnp u (mouse) (mouse (endogenous in e10.5 embryos)) (UniProt Q8VEK3); assay: as above

Molecule	binding [1]	binding [2]	binding [3]	binding [4]	binding [5]	binding [6]	binding [7]
ATP-dependent RNA helicase DDX3X (from UniProt O00571 1-662)	binds	binds	binds	–	–	–	–
Poly(A) binding protein, cytoplasmic 1 (from UniProt P11940 1-636)	binds	binds	–	–	–	–	–
Probable ATP-dependent RNA helicase DDX17 (from UniProt Q92841 1-729)	–	binds	binds	–	–	–	–
Tbx3 (endogenous, mouse) (protein, UniProt P70324-2 1-721) MSLSMRDPVIPGTSMAYHPFLPHRAPDFAMSAVLGHQPPFFPALTLPPNGAAALSLPGALAKPIMDQLVGAAETGIPFSSLGPQAHLRPLKTMEPEEDVEDDPKVHLEAKELWDQFHKRGTEMVITKSGRRMFPPFKVRCSGLDKKAKYILLMDIIAADDCRYKFHNSRWMVAGKADPEMPKRMYIHPDSPATGEQWMSKVVTFHKLKLTNNISDKHGFTILNSMHKYQPRFHIVRANDILKLPYSTFRTYLFPETEFIAVTAYQNDKITQLKIDNNPFAKGFRDTGNGRREKRKQLTLQSMRVFEERHKKETSDESSSEQAAFNCFAQASSPAVSIVGTSNLKDLCPSEAESDAEAESKEEHGPEACDAAKISTTTAEEPGRDKGSPATRAQLFPAEPSRARDTARLDKASPDSRHSPATISSSTRVPGADERRSPGREGPVATKVDEARAIPAKDAFAPLSVQTDATAHLAQGPLPGLGFAPGLAGQQFFNGHPLFLHPGQFAMGGAFSSMAAGMGPLLATVSGASTGVSGLESTAMASAAAAQGLSGASAATLPFHLQQHVLASQGLAMSPFGSLFPYPYTYMAAAAAASTAAASSSVHRHPFLNLNSMRPRLRYSPYSIPVPVPDSSSLLATALPSMASAAGPLDGKAAALAASPASVAVDSGSELNSRSSTLSSGSVSLSPKLCSEKEAATSELQSIQRLVSGLEAKPDRSCSGSP	–	–	–	binds	binds	binds	binds
